This note sets out measurements from the supplement of paper PMC6411743.

By UniProt entry, the sequences of proteins in these tests, tags left out. Where a name states a change or a piece, a line headed by the entry shows the natural chain unless it says otherwise.
UniProt A6NKF1: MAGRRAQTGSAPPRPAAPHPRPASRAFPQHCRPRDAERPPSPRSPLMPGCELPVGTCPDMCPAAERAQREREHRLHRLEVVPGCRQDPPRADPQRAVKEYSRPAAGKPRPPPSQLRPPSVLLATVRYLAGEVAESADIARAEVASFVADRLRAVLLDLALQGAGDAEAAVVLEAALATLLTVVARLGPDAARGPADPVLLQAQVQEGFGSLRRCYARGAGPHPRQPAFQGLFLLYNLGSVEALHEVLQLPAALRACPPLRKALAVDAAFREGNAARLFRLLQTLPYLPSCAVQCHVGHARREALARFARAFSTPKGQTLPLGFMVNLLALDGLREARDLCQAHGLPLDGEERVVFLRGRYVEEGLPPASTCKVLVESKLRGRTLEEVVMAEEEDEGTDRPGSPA
UniProt P54284, whole entry: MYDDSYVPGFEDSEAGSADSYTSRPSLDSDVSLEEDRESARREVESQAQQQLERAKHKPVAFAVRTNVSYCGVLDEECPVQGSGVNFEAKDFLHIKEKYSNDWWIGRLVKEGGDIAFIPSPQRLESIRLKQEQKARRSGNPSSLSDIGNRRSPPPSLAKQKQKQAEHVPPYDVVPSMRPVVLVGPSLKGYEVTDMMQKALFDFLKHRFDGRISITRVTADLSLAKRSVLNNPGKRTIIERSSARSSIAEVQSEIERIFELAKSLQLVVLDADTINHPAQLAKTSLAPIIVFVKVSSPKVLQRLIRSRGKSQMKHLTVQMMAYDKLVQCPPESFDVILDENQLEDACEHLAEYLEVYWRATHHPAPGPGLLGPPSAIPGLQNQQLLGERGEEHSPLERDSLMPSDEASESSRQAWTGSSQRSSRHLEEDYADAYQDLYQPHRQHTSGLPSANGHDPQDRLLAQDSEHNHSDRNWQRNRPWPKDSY
UniProt Q0P6D6: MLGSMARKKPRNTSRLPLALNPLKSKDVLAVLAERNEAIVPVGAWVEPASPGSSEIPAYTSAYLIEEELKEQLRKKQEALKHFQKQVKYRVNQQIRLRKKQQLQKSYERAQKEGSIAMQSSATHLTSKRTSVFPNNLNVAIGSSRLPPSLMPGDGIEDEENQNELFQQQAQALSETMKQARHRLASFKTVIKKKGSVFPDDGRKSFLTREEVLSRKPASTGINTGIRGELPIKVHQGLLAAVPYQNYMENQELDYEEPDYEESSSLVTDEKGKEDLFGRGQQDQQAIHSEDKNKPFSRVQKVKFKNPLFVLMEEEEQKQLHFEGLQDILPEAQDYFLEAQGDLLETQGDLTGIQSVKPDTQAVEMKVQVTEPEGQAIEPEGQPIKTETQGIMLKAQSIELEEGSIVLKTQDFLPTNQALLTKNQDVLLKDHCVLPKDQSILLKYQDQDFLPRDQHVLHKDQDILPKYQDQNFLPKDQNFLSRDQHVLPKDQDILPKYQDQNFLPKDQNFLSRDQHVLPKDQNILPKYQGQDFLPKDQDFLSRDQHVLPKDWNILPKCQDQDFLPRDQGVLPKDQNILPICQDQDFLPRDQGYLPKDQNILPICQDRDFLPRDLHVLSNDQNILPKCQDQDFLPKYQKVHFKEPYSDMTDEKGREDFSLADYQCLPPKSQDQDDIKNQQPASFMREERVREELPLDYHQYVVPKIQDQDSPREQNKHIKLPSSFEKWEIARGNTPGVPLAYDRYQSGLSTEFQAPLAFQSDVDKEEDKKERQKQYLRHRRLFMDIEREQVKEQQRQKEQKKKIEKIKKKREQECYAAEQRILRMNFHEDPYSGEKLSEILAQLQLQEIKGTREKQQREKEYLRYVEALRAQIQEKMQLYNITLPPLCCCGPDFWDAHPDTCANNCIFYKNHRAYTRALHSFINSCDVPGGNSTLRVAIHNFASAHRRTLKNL
UniProt Q9H3S4: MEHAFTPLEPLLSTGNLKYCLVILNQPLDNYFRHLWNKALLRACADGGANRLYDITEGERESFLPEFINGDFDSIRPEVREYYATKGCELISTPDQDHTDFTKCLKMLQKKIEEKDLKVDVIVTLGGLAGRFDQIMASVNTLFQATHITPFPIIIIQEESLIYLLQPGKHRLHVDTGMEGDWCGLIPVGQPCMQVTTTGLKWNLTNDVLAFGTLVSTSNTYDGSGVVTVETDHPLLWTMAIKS
UniProt Q99590: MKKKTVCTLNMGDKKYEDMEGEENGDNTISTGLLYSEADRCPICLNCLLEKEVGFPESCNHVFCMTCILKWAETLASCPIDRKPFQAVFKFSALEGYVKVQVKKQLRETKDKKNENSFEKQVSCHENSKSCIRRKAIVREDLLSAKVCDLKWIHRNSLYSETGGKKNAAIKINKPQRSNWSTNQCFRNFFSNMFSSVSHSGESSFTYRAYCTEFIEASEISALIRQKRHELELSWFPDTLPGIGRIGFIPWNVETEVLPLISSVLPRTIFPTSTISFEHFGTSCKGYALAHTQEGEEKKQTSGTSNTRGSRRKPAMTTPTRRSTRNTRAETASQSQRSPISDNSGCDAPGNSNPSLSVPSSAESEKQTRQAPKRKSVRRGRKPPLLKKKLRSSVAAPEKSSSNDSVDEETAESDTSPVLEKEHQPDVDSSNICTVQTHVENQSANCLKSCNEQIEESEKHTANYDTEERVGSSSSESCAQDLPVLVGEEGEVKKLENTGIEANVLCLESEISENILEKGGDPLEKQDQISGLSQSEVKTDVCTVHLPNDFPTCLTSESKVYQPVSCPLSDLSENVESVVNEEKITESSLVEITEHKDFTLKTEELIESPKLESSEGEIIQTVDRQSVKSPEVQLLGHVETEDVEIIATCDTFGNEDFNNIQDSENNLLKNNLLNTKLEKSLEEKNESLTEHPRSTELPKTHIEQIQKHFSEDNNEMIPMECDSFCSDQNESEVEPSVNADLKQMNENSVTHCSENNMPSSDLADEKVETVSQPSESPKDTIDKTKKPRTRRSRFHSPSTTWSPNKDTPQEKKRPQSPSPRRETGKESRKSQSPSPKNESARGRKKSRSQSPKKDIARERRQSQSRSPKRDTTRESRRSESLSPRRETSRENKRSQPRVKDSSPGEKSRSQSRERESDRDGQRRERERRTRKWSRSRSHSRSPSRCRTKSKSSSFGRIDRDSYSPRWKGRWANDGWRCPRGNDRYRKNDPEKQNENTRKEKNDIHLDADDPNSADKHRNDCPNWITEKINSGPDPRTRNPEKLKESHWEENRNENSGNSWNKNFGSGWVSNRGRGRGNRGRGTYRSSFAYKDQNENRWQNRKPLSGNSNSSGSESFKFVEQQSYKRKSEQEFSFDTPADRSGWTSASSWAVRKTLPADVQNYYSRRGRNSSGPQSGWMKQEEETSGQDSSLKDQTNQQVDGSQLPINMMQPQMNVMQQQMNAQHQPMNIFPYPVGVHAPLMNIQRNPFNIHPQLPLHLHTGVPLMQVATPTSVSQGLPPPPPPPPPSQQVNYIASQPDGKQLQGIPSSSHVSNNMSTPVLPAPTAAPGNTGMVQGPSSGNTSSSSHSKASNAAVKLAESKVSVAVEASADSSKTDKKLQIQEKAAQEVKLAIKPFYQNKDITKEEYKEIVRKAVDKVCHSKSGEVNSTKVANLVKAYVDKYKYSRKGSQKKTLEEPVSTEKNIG
UniProt O43491, whole entry: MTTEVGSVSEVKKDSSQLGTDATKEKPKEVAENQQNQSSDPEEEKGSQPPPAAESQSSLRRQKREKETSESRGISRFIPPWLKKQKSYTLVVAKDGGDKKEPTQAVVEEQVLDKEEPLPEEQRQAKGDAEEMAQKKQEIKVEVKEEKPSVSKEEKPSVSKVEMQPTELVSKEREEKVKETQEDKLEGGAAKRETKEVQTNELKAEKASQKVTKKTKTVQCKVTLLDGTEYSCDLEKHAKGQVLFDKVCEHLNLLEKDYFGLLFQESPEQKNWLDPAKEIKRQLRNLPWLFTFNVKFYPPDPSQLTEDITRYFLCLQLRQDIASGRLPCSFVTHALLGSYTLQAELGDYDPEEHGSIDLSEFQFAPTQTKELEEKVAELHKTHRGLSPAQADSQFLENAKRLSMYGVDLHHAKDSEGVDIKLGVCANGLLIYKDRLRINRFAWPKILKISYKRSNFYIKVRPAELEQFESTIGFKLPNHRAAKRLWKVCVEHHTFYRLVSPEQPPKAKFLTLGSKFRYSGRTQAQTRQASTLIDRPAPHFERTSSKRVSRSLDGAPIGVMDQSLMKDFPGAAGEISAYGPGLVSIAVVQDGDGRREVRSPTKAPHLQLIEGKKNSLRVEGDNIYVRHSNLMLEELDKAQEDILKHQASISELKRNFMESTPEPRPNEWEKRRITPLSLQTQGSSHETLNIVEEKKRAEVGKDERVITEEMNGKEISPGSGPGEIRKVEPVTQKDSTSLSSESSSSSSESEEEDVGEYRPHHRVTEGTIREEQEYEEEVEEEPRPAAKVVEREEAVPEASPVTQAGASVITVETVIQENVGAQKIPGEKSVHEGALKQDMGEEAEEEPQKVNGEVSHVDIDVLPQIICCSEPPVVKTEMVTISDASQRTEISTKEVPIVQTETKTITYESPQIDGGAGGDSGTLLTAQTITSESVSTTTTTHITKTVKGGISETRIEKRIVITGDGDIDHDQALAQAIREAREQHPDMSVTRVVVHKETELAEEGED
UniProt P51784: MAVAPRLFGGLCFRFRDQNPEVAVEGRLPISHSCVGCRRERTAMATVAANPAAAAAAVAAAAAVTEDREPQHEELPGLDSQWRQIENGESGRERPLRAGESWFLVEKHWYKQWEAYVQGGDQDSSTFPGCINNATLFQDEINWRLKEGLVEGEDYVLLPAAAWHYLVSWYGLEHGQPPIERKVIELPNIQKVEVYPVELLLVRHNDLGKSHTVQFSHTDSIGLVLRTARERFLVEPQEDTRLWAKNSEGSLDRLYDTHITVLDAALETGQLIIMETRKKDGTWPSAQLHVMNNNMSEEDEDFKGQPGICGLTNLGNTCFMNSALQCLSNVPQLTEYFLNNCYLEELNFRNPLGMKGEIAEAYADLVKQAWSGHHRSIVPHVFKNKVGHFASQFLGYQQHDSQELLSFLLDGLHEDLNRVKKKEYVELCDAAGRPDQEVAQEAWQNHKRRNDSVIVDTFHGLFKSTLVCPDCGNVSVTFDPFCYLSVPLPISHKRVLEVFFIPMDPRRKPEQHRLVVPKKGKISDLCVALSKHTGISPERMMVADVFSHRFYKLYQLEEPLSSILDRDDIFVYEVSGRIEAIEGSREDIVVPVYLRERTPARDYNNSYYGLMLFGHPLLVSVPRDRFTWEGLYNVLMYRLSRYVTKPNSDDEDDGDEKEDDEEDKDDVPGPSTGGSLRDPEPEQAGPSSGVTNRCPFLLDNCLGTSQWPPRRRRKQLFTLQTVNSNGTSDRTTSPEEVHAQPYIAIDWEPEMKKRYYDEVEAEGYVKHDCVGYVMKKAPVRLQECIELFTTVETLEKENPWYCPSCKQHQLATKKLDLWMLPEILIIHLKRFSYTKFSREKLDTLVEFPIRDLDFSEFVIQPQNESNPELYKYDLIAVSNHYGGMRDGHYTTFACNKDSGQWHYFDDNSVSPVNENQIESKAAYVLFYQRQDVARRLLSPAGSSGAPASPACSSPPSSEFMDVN
UniProt Q9UQV4: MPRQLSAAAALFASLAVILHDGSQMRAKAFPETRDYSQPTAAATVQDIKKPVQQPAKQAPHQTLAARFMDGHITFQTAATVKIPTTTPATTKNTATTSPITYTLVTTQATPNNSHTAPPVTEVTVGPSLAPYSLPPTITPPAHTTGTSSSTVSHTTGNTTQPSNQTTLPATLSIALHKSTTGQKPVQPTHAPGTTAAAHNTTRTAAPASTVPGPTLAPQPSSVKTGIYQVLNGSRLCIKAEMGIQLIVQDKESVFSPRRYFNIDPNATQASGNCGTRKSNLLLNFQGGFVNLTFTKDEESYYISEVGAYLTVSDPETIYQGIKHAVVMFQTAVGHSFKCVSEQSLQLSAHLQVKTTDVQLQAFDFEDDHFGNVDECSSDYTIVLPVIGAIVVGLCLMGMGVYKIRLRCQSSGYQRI
UniProt P24752: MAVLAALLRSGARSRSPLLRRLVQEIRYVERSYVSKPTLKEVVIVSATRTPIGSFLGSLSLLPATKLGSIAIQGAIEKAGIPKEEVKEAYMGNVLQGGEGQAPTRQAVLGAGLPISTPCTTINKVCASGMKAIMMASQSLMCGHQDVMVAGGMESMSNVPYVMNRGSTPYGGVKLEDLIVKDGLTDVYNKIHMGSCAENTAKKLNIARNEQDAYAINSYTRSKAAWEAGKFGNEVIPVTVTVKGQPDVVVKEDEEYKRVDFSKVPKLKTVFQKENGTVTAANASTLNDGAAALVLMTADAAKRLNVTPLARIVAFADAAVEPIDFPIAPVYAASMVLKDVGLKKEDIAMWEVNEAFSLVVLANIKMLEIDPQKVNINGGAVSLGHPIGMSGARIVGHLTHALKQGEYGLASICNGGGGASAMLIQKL

± gives the standard deviation of the averaged measurements. Only a part is listed here, and it is no random draw.

Compound in this assay: Nc1ncnc2c1ncn2[C@@H]1O[C@H](COP(=O)(O)OP(=O)(O)OP(=O)(O)O)[C@@H](O)[C@H]1O [adenosine triphosphate]
In words: NP40-soluble protein abundance relative to vehicle (solubility fold change) (ratio); higher = more soluble protein in presence of ATP. The procedure, abridged: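 Jurkat crude lysate (Dounce-homogenised) was treated with eight concentrations from 0.1 to 10 mM for 10 min at room temperature, then 3 min at 37 °C. It was solubilised with 0.8% NP40 and benzonase (60 min, 4 °C) and ultracentrifuged, and the supernatant was TMT-labelled for LC-MS/MS. Intensities were vsn-normalised, and the value is the fold change against the NP40-processed vehicle per replicate, from three independent experiments.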

As for F8WC89 (UniProt A6NKF1), the NP40-soluble protein abundance came to 0.838 ± 0.04 (concentration: 1mM); 0.878 ± 0.022 (concentration: 2mM); 0.881 ± 0.027 (concentration: 4mM); 0.875 ± 0.1 (concentration: 6mM); 0.883 ± 0.018 (concentration: 8mM); 0.967 ± 0.036 (concentration: 10mM).
Take “F8VNV8 and related entries (UniProt P54284)”: the NP40-soluble protein abundance by setting is: (concentration: 1mM) 1.1 ± 0.08; (concentration: 2mM) 1.07 ± 0.028; (concentration: 4mM) 1.17 ± 0.13; (concentration: 6mM) 1.06 ± 0.028; (concentration: 8mM) 1.24 ± 0.12; (concentration: 10mM) 1.1 ± 0.032.
For “E9PKB1 and related entries (UniProt Q0P6D6)”, the NP40-soluble protein abundance is, setting by setting: (concentration: 1mM) 1.01 ± 0.19; (concentration: 2mM) 1.01 ± 0.22; (concentration: 4mM) 1.09 ± 0.046; (concentration: 6mM) 1.17 ± 0.21; (concentration: 8mM) 1.01 ± 0.05; (concentration: 10mM) 1.05 ± 0.071.
For the target “G5E977 and related entries (UniProt Q6XQN6)”, the NP40-soluble protein abundance by setting is: (concentration: 1mM) 0.99 ± 0.016; (concentration: 2mM) 0.978 ± 0.04; (concentration: 4mM) 0.962 ± 0.08; (concentration: 6mM) 0.928 ± 0.035; (concentration: 8mM) 0.953 ± 0.073; (concentration: 10mM) 0.958 ± 0.047.
For “F8W6N3 and related entries (UniProt Q92560)”, the NP40-soluble protein abundance reads like this: (concentration: 1mM) 1.04 ± 0.017; (concentration: 2mM) 1.04 ± 0.071; (concentration: 4mM) 1.08 ± 0.044; (concentration: 6mM) 1.08 ± 0.095; (concentration: 8mM) 1.1 ± 0.046; (concentration: 10mM) 1.11 ± 0.077.
Turning to UniProt F5H5P2, the NP40-soluble protein abundance (concentration: 1mM) worked out at 1.01 ± 0.011; the NP40-soluble protein abundance (concentration: 2mM) worked out at 0.99 ± 0.018; the NP40-soluble protein abundance (concentration: 4mM) is 1.03 ± 0.034; the NP40-soluble protein abundance (concentration: 6mM) was determined as 1.02 ± 0.048; the NP40-soluble protein abundance (concentration: 8mM) is 1.07 ± 0.05; the NP40-soluble protein abundance (concentration: 10mM) stood at 1.06 ± 0.032.
In the case of “F5GZG6 and related entries (UniProt Q9H3S4)”, the NP40-soluble protein abundance came to 0.966 ± 0.053 (concentration: 1mM); 0.987 ± 0.072 (concentration: 2mM); 0.98 ± 0.022 (concentration: 4mM); 0.949 ± 0.058 (concentration: 6mM); 0.978 ± 0.013 (concentration: 8mM); 0.96 ± 0.1 (concentration: 10mM).
In the case of “E9PDP5 and related entries (UniProt Q8IWZ3)”, the NP40-soluble protein abundance runs as follows: (concentration: 1mM) 0.965 ± 0.088; (concentration: 2mM) 0.971 ± 0.062; (concentration: 4mM) 0.986 ± 0.047; (concentration: 6mM) 0.998 ± 0.058; (concentration: 8mM) 0.949 ± 0.034; (concentration: 10mM) 0.967 ± 0.028.
In the case of “F8VXG7 and related entries (UniProt Q99590)”, the NP40-soluble protein abundance was 1.26 ± 0.13 (concentration: 1mM); 1.3 ± 0.065 (concentration: 2mM); 1.32 ± 0.087 (concentration: 4mM); 1.39 ± 0.075 (concentration: 6mM); 1.32 ± 0.049 (concentration: 8mM); 1.34 ± 0.029 (concentration: 10mM).
As to “E9PHY5 and related entries (UniProt O43491)”, the NP40-soluble protein abundance was 0.982 ± 0.042 (concentration: 1mM); 0.9719 ± 0.005 (concentration: 2mM); 0.964 ± 0.01 (concentration: 4mM); 0.987 ± 0.016 (concentration: 6mM); 0.941 ± 0.023 (concentration: 8mM); 0.954 ± 0.029 (concentration: 10mM).
In the case of G5E9A6 (UniProt P51784), the NP40-soluble protein abundance reads like this: (concentration: 1mM) 1.06 ± 0.092; (concentration: 2mM) 1.02 ± 0.073; (concentration: 4mM) 1 ± 0.074; (concentration: 6mM) 0.967 ± 0.11; (concentration: 8mM) 1.03 ± 0.061; (concentration: 10mM) 0.986 ± 0.064.
With “G3XAI2 and related entries (UniProt P07942)”, the NP40-soluble protein abundance reads like this: (concentration: 1mM) 0.94 ± 0.11; (concentration: 2mM) 1.01 ± 0.087; (concentration: 4mM) 0.996 ± 0.087; (concentration: 6mM) 1.02 ± 0.15; (concentration: 8mM) 1.02 ± 0.17; (concentration: 10mM) 1.02 ± 0.079.
For E9PGC8 (UniProt P78559), the NP40-soluble protein abundance runs as follows: (concentration: 1mM) 0.95 ± 0.067; (concentration: 2mM) 0.946 ± 0.021; (concentration: 4mM) 0.929 ± 0.027; (concentration: 6mM) 0.975 ± 0.035; (concentration: 8mM) 0.916 ± 0.017; (concentration: 10mM) 0.9247 ± 0.0049.
As to “E7ETP9 and related entries (UniProt Q9UQV4)”, the NP40-soluble protein abundance worked out at 0.9 ± 0.048 (concentration: 1mM); 0.94 ± 0.015 (concentration: 2mM); 0.923 ± 0.02 (concentration: 4mM); 0.937 ± 0.027 (concentration: 6mM); 0.87 ± 0.028 (concentration: 8mM); 0.841 ± 0.074 (concentration: 10mM).
In the case of “E9PKF3 and related entries (UniProt P24752)”, the NP40-soluble protein abundance was 0.972 ± 0.039 (concentration: 1mM); 0.945 ± 0.014 (concentration: 2mM); 0.909 ± 0.021 (concentration: 4mM); 0.9699 ± 0.0024 (concentration: 6mM); 0.929 ± 0.017 (concentration: 8mM); 0.916 ± 0.01 (concentration: 10mM).
